Measured values as given in patent US20200055913A1.
No constants are given. Whether binding was seen depends on the method and setting. In cells and extracts the contact can be indirect. Some binding calls cover weakened binding; strength is not graded here.

By UniProt entry, the sequences of proteins in these tests, tags left out. Residues count along the entry.
UniProt O00206, residues 24-631: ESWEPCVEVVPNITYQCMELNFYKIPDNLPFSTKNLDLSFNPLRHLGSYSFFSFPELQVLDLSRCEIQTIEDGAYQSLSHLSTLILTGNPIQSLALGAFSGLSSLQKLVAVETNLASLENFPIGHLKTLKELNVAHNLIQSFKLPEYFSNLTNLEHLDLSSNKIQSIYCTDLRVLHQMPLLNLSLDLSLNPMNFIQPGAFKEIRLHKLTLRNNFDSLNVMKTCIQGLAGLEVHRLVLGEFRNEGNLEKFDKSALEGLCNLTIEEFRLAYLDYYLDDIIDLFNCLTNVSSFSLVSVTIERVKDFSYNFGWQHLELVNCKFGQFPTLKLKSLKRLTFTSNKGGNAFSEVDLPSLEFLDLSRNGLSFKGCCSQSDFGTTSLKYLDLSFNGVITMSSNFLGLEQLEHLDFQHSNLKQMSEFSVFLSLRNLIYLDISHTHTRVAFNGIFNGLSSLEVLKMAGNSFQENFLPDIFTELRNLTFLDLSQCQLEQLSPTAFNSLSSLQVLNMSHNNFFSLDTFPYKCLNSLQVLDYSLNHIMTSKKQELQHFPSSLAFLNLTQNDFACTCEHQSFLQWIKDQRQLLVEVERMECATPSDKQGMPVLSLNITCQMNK

What was measured:
[1] = target: histidine (his)-tagged human TLR4 (human) (UniProt O00206); assay: competitive co-immunoprecipitation
[2] = target: histidine (his)-tagged human TLR4 (human) (UniProt O00206); assay: competition pull-down: 500 ng/ml N-peptide with His-TLR4 on beads, then Flag-hRetn

MEEAINERIQEVAGSLIFRAISS [hRetn N-terminal peptide (1-23 a.a.) (SEQ ID NO: 2)]
binding [1]: binds | binding [2]: binds
